Measurements published in the supplement of paper PMC7666118.
This is one part of the list.

Amino acid sequences for entries named in this document (tags omitted). A change or cut given only in a name is not applied to a line headed by its entry.
UniProt P06737: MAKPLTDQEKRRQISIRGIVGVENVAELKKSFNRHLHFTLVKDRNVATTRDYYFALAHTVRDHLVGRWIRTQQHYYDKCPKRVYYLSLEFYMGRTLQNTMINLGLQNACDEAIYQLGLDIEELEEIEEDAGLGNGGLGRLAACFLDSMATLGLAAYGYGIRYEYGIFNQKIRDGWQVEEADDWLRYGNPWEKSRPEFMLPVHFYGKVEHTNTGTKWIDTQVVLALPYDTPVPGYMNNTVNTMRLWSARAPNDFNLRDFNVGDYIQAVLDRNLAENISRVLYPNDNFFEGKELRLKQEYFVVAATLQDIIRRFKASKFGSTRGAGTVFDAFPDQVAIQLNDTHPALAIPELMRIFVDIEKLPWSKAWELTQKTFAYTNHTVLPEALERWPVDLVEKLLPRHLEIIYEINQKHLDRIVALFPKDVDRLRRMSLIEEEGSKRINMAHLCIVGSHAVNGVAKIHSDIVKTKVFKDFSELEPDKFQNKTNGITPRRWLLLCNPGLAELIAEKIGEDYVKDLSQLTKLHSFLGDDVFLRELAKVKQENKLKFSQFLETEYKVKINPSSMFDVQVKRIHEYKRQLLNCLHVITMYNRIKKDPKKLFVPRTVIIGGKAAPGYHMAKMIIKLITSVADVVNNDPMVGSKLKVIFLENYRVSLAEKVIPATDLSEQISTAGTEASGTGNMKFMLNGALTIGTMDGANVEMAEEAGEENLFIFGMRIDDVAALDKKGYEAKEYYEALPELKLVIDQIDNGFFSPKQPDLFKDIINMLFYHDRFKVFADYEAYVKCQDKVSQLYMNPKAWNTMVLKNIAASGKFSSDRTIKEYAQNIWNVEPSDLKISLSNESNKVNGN
UniProt Q8TC12: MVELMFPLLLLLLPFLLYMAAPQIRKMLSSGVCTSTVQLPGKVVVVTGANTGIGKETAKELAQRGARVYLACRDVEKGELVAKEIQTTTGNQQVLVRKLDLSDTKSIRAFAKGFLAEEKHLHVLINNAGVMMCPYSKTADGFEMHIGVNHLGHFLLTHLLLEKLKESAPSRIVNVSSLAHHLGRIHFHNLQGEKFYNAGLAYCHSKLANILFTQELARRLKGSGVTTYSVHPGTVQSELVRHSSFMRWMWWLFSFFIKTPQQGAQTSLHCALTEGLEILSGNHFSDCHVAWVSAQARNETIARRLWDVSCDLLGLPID
UniProt Q9H5N1: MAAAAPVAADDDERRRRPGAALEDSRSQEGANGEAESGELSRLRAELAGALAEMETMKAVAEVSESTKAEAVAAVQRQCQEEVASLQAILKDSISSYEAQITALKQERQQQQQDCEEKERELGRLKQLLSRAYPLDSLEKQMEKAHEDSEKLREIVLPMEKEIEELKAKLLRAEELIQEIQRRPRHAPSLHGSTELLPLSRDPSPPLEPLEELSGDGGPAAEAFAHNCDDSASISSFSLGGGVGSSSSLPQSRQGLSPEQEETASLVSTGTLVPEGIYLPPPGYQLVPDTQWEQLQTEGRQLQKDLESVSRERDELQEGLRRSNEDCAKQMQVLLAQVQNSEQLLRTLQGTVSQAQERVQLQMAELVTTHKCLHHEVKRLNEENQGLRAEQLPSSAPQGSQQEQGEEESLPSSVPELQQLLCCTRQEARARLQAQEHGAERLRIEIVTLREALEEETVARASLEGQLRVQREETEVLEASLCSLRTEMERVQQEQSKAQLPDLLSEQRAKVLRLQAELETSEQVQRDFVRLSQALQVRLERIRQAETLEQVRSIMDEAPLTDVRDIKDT
UniProt P40937, whole entry: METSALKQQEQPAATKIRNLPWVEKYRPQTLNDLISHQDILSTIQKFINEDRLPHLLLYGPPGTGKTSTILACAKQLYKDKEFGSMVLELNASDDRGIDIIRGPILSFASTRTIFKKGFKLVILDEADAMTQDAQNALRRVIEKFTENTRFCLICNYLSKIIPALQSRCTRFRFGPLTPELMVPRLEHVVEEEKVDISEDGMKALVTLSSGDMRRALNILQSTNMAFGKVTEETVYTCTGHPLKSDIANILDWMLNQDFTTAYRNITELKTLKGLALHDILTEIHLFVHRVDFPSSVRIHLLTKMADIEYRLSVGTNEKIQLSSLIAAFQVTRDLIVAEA
UniProt Q96HR9: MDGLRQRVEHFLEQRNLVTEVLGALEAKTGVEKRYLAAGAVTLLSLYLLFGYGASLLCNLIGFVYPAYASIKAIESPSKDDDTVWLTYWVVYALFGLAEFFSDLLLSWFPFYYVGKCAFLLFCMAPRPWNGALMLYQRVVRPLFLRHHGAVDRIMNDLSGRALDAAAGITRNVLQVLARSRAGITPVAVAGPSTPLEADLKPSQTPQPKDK
UniProt Q9P0P0: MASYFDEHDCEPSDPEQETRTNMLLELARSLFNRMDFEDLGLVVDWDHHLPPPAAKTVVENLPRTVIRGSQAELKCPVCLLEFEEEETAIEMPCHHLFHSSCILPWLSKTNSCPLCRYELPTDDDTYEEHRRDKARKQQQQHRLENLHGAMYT
UniProt P61019: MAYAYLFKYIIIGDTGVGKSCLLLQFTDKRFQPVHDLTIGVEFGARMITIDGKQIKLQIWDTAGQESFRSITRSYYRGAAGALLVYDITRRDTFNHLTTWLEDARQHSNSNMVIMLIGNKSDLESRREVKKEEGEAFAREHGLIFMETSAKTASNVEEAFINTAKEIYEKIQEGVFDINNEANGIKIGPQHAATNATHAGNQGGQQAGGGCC
UniProt P52306: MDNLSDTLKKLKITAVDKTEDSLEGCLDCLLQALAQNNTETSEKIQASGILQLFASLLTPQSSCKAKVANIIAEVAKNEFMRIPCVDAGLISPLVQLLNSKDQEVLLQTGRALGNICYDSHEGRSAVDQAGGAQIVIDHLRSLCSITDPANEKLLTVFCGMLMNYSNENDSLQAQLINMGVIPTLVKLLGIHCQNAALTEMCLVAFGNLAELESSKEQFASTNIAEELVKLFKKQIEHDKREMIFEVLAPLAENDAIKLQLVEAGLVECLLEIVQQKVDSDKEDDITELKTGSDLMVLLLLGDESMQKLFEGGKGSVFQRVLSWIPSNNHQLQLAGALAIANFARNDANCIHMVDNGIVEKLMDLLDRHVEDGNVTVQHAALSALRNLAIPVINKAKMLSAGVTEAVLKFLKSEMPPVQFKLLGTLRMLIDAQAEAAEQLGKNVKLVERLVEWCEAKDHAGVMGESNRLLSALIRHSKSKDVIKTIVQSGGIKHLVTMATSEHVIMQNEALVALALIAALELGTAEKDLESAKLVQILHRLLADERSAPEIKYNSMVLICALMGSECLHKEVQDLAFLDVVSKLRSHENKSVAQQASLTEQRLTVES
UniProt Q96EV2: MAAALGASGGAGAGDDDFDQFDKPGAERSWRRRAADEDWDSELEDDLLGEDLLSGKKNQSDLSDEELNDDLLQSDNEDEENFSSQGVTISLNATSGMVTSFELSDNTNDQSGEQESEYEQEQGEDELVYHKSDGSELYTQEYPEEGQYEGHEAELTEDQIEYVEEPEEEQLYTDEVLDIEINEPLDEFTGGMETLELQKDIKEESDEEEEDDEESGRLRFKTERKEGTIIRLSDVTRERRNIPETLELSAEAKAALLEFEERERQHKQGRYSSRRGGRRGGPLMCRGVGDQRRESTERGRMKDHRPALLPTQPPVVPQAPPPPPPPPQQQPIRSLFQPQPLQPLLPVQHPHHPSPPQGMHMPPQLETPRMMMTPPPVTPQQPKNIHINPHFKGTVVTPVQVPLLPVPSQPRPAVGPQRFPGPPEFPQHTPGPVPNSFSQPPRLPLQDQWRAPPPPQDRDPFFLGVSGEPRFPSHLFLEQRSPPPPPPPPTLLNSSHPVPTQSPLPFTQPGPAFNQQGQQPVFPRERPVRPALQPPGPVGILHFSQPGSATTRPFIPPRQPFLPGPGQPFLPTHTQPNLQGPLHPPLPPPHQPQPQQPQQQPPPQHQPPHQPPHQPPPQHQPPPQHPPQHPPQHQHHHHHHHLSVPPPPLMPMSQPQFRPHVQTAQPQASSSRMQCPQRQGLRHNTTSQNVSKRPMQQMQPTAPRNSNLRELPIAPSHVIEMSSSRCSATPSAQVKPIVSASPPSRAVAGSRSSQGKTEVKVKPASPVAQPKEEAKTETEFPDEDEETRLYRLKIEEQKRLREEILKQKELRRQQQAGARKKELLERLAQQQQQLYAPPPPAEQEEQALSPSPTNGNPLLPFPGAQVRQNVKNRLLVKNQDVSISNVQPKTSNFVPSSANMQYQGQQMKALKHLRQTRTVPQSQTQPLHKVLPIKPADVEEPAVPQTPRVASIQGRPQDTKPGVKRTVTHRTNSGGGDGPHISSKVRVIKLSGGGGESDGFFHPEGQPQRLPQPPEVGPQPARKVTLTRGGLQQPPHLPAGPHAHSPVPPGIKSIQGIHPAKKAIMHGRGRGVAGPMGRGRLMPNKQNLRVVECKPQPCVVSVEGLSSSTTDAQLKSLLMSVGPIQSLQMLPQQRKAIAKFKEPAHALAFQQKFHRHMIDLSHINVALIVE
UniProt A6NED2: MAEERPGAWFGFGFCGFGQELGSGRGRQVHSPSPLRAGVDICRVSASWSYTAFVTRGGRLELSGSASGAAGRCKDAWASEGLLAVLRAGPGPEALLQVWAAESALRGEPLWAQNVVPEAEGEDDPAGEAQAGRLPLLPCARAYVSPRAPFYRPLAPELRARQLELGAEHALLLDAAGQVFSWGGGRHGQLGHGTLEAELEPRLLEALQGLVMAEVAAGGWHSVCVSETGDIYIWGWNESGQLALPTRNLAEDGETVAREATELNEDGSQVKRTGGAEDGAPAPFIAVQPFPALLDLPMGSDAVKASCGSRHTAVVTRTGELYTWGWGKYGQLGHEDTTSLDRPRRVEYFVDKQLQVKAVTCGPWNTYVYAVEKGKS
UniProt Q15276: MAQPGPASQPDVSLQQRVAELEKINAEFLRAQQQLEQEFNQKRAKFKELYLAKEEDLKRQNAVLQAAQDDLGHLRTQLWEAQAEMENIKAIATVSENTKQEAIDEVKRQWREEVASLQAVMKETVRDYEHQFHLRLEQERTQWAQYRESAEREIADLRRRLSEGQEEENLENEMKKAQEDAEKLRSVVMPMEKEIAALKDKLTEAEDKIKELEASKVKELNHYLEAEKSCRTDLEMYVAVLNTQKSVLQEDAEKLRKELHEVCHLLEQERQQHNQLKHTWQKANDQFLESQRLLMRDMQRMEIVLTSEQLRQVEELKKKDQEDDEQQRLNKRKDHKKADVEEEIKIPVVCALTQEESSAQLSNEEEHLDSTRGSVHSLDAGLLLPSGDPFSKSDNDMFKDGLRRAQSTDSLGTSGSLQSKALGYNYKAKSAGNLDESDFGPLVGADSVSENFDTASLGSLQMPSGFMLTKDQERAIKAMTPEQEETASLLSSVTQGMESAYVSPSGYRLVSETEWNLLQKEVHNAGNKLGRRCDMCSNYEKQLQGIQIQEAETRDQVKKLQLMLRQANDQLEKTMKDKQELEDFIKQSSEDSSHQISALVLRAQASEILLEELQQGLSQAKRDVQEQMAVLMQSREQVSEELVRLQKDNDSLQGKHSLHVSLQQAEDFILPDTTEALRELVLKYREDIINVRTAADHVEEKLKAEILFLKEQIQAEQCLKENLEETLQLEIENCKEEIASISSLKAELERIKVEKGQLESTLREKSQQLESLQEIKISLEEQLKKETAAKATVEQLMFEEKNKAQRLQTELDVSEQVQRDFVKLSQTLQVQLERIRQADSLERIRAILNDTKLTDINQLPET
UniProt P06400: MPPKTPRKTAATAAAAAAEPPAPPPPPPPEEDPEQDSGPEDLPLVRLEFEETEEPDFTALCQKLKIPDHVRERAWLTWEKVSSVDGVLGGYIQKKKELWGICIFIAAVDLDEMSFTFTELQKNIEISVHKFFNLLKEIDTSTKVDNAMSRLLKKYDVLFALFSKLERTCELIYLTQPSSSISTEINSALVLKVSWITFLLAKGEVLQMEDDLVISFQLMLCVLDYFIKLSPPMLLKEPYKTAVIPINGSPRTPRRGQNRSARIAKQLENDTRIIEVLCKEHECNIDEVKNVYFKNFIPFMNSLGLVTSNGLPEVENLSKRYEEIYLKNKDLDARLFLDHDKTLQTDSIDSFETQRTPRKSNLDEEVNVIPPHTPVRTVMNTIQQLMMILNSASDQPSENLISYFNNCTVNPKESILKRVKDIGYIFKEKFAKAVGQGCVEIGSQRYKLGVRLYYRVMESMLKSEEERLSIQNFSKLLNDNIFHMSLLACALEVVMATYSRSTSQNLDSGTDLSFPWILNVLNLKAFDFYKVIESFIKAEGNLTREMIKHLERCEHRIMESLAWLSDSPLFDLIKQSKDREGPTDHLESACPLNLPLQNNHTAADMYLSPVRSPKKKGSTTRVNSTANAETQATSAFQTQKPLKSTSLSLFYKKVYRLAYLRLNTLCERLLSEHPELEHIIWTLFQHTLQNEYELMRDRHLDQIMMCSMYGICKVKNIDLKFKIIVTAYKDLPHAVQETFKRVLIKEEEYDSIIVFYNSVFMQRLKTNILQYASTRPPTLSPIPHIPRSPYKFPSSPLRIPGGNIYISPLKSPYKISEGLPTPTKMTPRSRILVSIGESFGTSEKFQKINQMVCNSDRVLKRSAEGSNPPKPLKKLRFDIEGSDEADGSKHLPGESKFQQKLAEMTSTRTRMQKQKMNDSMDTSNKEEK

Compound: COc1ccc(Cn2ccc3cc(C)c(C(=O)NO)cc32)cc1
Assay: dose-dependent thermal stabilisation call (2D-TPP, DLPTP, 10% FDR) (binary (1 = stabilised)); higher = stabilised by the compound
Settings: system: HL-60 intact cells; concentration range 0.04-10 µM
Method: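 2D thermal proteome profiling in intact HL-60 cells treated with BRD-3811 (0, 0.04, 0.29, 2, 10 uM) for 90 min at 37 C, then heated 3 min at one of 12 temperatures (42-63.9 C). Soluble protein was quantified by TMT10 MS. The value is the DLPTP call of the paper: dose-dependent thermal stabilisation over all temperatures at 10% FDR (F-test of a dose-response against a flat model); one experiment, one call per tested protein.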

Target	dose-dependent thermal stabilisation call
REL (UniProt Q04864)	inactive: 0
RAB6A (UniProt P20340)	inactive: 0
RANGAP1 (UniProt P46060)	inactive: 0
PYGL (UniProt P06737)	inactive: 0
RNF185 (UniProt Q96GF1)	inactive: 0
RCC2 (UniProt Q9P258)	inactive: 0
PURB (UniProt Q96QR8)	inactive: 0
RNASEL (UniProt Q05823)	inactive: 0
RDH11 (UniProt Q8TC12)	inactive: 0
RABEP2 (UniProt Q9H5N1)	inactive: 0
RNF138 (UniProt Q8WVD3)	inactive: 0
RELA (UniProt Q04206)	inactive: 0
RFC5 (UniProt P40937)	inactive: 0
RBL2 (UniProt Q08999)	inactive: 0
RNF123 (UniProt Q5XPI4)	inactive: 0
RFT1 (UniProt Q96AA3)	inactive: 0
RFC4 (UniProt P35249)	inactive: 0
PWP1 (UniProt Q13610)	inactive: 0
PXMP2 (UniProt Q9NR77)	inactive: 0
REEP6 (UniProt Q96HR9)	inactive: 0

No new results follow: entries from further up.
Target	dose-dependent thermal stabilisation call
RELA (UniProt Q04206)	inactive: 0
RFC5 (UniProt P40937)	inactive: 0
RBL2 (UniProt Q08999)	inactive: 0
RNF123 (UniProt Q5XPI4)	inactive: 0
RFT1 (UniProt Q96AA3)	inactive: 0
RFC4 (UniProt P35249)	inactive: 0
PWP1 (UniProt Q13610)	inactive: 0

Continuation:

Target	dose-dependent thermal stabilisation call
RNF181 (UniProt Q9P0P0)	inactive: 0
RAB2A (UniProt P61019)	inactive: 0
RNASEH2C (UniProt Q8TDP1)	inactive: 0
RBM27 (UniProt Q9P2N5)	inactive: 0
RBM15B (UniProt Q8NDT2)	inactive: 0
REEP3 (UniProt Q6NUK4)	inactive: 0
RAB7L1 (UniProt O14966)	inactive: 0
RAP1GDS1 (UniProt P52306)	inactive: 0
RBM33 (UniProt Q96EV2)	inactive: 0
RAB3GAP2 (UniProt Q9H2M9)	inactive: 0
RANGRF (UniProt Q9HD47)	inactive: 0
RNF10 (UniProt Q8N5U6)	inactive: 0
RBPJ (UniProt Q06330)	inactive: 0
RIF1 (UniProt Q5UIP0)	inactive: 0
RCCD1 (UniProt A6NED2)	inactive: 0
RAD9A (UniProt Q99638)	inactive: 0
QTRTD1 (UniProt Q9H974)	inactive: 0
RABGAP1L	inactive: 0
RABEP1 (UniProt Q15276)	inactive: 0
RB1 (UniProt P06400)	inactive: 0
